Among the data in PubChem BioAssay AID2685 (National Center for Advancing Translational Sciences (NCATS), 2010) are cell number change and AC50 values, retold here.

The list shows a part of the results. The main result of the screen is listed elsewhere. These columns were measured beside it and carry no call. Compounds called inactive in the main read-out are mostly missing here. Potencies come from curve fits of mixed quality, noted in brackets.

As usually defined, the AC50 is the concentration at which the activity in the assay is half-maximal. Read a high AC50 as weaker potency.

This assay can be described thus: qHTS Assay for Lipid Storage Modulators in Drosophila S3 Cells.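 As to cell number change: cells counted by Cell Tracker Red CMTPX staining in the red channel.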 The following applies: BODIPY lipid droplet fluorescence, 18-24 h; for cell number change: measured here: cell count max response, cells fed with added oleic acid. The essentials: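 Drosophila S3 cells got compounds at several concentrations plus oleic acid (400 uM solution). Laser-scanning cytometry with 488 nm excitation read lipid droplets at 500-530 nm and cells at 575-640 nm. Percent activity was relative to 20 uM Triacsin C.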

The mark [1] stands for this setting: measured here: cell number channel AC50, cells fed with added oleic acid.
The mark [2] stands for this setting: measured here: lipid fluorescence (Fed channel) AC50, cells fed with added oleic acid.

Regarding `Cc1cccc(NC(=O)c2cc3ccccc3oc2=O)c1`, the cell number change came out at 6.2%. Moreover, the concentration at half-maximal activity (AC50) under setting [1] is 0.291 µM [rising, full curve, poor fit]. Also, the AC50 under setting [2] is 0.58 µM [rising, single point].
`Cc1ccc(CNC2=NCCCCC2)n1C`: the cell number change was -70.4%. For the same molecule, the concentration at half-maximal activity (AC50) under setting [1] is 18.4 µM [falling, partial curve]. Moreover, the AC50 under setting [2] was 18.4 µM [falling, partial curve].
Turning to `FC(F)(F)c1ccc(/C=N/NC(=S)NC2CCCCC2)cc1`, the cell number change was -15.9%.
Consider `Cc1ccc(S(=O)(=O)Cc2ccc(C(=O)NCc3ccc4c(c3)OCO4)o2)cc1`, for which the AC50 is, setting by setting: under setting [1], 0.164 µM [rising, full curve, poor fit]; under setting [2], 0.13 µM [rising, full curve, poor fit].
With `COc1ccc2c(c1)[nH]c1c(=O)n(Cc3ccco3)cnc12`, the cell number change was 107%.
In the case of `Cn1ncc2c(Nc3ccc(-c4ccccc4)cc3)ncnc21`, the cell number change was 22.8%. Besides, the AC50 under setting [1] was 0.461 µM [rising, full curve, poor fit]. The AC50 under setting [2] was 0.58 µM [rising, partial curve].
As for `Nc1[nH]c(=S)[nH]c(=O)c1-c1ccccc1`, the cell number change amounted to 40.4%. The AC50 under setting [1] is 29.1 µM [rising, single point].
For `COc1ccc(OC)c(NC2c3ccccc3C(=O)N2Cc2ccc3c(c2)OCO3)c1` (configuration not stated), the AC50 under setting [1] was 1.46 µM [rising, partial curve].
Take `CCN1CCN(c2cc(-c3ccccc3)nc3cc(-c4cccc(F)c4)nn23)CC1`: the cell number change was -75.3%. Besides, the AC50 under setting [1] was 29.1 µM [falling, single point]. In addition, under setting [2], the AC50 was 29.1 µM [falling, single point].
In the case of `Cc1cc(-c2ccccc2)nc(N/N=C/c2ccc(O)cc2)n1`, the cell number change is -16.4%. Moreover, the AC50 under setting [2] is 29.1 µM [falling, single point].
For the molecule `CC(C)OC(=O)CSc1nnc2n1C(C)(C)Cc1ccccc1-2`, the cell number change amounted to 68.2%. For the same molecule, the AC50 under setting [1] was 29.1 µM [rising, single point]. Further, the half-maximal activity concentration (AC50) under setting [2] was 23.1 µM [rising, single point].
As to `N#Cc1ccccc1NC(=O)c1ccc(-c2ccccc2Cl)o1`, the cell number change was -46.1%. Besides, under setting [1], the AC50 is 25.9 µM [falling, single point].
Turning to `COc1ccc(CCC(C)NCc2ccc(Cl)c(Cl)c2)cc1` (configuration not stated), the cell number change was -18.5%. Moreover, the concentration at half-maximal activity (AC50) under setting [2] is 0.58 µM [rising, single point].
Consider `COc1cccc(NC(=O)Cc2nnc(SCC(=O)NC3CCCC3)n2C)c1`, for which the cell number change was determined as 22.5%.
Turning to `COc1ccc(CNC(=S)NCc2ccc(F)cc2)cc1`, the cell number change turned out to be 22%. Moreover, the AC50 under setting [1] was 0.92 µM [rising, full curve, poor fit].
As for `CCOc1ccccc1NC(=S)N1CCN(c2ccc(O)cc2)CC1`, the cell number change was determined as 7.09%.
Take `CCN(CC)c1ccc(/C=C2/SC(=O)N(C(C)C)C2=O)o1`: the cell number change is -77.2%. For the same molecule, the AC50 under setting [1] is 29.1 µM [falling, single point]. For the same molecule, under setting [2], the AC50 is 29.1 µM [falling, single point].
On to `Cc1nn(C(C)C(=O)Nc2ccccc2Cl)c(=O)c2nn(-c3ccccc3)c(C)c12` (configuration not stated), for which the cell number change is 32.7%. Moreover, the AC50 under setting [1] was 0.411 µM [rising, partial curve].
On to `COc1cccc2sc(=NC(=O)CS(=O)(=O)c3ccc(F)cc3)n(C)c12`, for which the AC50 under setting [2] was 0.0731 µM [rising, full curve, poor fit].
For the molecule `Cn1c(=O)n(CCc2ccccc2)c(=O)c2c1nc1n2CCCN1Cc1ccccc1`, the cell number change is 11.6%.
As for `N#CC1(NC(=O)CN2CCc3ccccc3C2)CCCC1`, the cell number change is -64%. Also, the AC50 under setting [1] was 23.1 µM [falling, single point].
Regarding `CC1CC(C)CN(S(=O)(=O)c2ccc(NC(=O)CCN3C(=O)C4CC=CCC4C3=O)cc2)C1` (configuration not stated), the cell number change is 15.8%.
On to `Cc1ccccc1-c1cc(C(=O)NCc2ccc3c(c2)OCO3)n(CC2CC(c3cccnc3)=NO2)n1` (configuration not stated), for which the cell number change was -8.15%. Besides, the AC50 under setting [2] was 1.16 µM [rising, single point].
Turning to `COc1ccc2oc(C(=O)NCc3ccccc3CN3CCCC3)c(C)c2c1`, the cell number change was -18.3%. For the same molecule, the AC50 under setting [2] is 5.17 µM [falling, partial curve, poor fit].
In the case of `Cc1cccc(Nc2nnc(SC(C)C(=O)NC3CC3)s2)c1` (configuration not stated), the cell number change was -13.8%.
With `O=C(Nc1ccc2c(c1)CCC2)c1cccc(S(=O)(=O)Nc2ccccc2Cl)c1`, the cell number change came to 15.6%. Further, the AC50 under setting [2] was 14.6 µM [rising, partial curve].
Take `COc1cccc(C(=O)OCC(=O)N2CCc3ccccc32)c1OC`: the cell number change turned out to be 27.3%.
Take `CC(=O)Nc1ccc(NC(=O)c2ccccc2N(Cc2ccccc2)S(C)(=O)=O)cc1`: the cell number change is -18.5%. For the same molecule, the AC50 under setting [2] is 4.61 µM [falling, single point].
For the molecule `CC(C)(C)c1ccc(CSc2nnc(-c3ccccn3)n2Cc2ccco2)cc1`, the cell number change was -78.3%. In addition, the AC50 under setting [1] is 18.4 µM [falling, partial curve].
On to `COC(=O)Cn1cnc2c(nnn2Cc2ccc(Cl)cc2)c1=O`, for which the cell number change was determined as 16.1%.
On to `O=C(NCc1ccccc1)c1ccc2c(=O)n(CCCN3CCCC3=O)c(=S)[nH]c2c1`, for which the cell number change amounted to 17%. The concentration at half-maximal activity (AC50) under setting [1] is 0.326 µM [rising, full curve, poor fit].
For the molecule `Cc1sc(NC(=O)CS(=O)(=O)c2ccccc2)c(C(N)=O)c1C`, the cell number change amounted to 24%. Also, under setting [1], the AC50 is 0.651 µM [rising, full curve, poor fit]. In addition, the concentration at half-maximal activity (AC50) under setting [2] is 0.411 µM [rising, full curve, poor fit].
Regarding `CC(C)c1ccc(N2C(=NC(=O)C3CCCO3)SC3CS(=O)(=O)CC32)cc1` (configuration not stated), the cell number change was -6.93%. Besides, the AC50 under setting [1] is 0.651 µM [rising, single point].
Turning to `COc1ccc(C2CC(C(F)(F)F)n3ncc(C(=O)NCC4CCCO4)c3N2)cc1OC` (configuration not stated), the cell number change was 9.01%. For the same molecule, the AC50 under setting [1] was 0.731 µM [rising, single point].
With `COc1ccc(CCNC(=O)CSc2nnc(CNC(=O)c3ccccc3F)o2)cc1OC`, the AC50 under setting [2] was 1.64 µM [rising, partial curve, poor fit].
For `COc1ccc(-n2cnc3cc(C(=O)NCC4CCCO4)ccc32)cc1` (configuration not stated), the cell number change was determined as 13.1%.
Turning to `CCCCn1c(NC(=O)c2ccccc2)c(C#N)c2nc3ccccc3nc21`, the cell number change was -52.9%. Under setting [1], the AC50 is 18.4 µM [falling, partial curve, poor fit]. For the same molecule, the AC50 under setting [2] is 29.1 µM [falling, single point].
With `COc1ccc(C(=O)N2CCCC(C(=O)N3CCCCCC3)C2)cc1` (configuration not stated), the AC50 under setting [2] was 6.51 µM [rising, single point].
As for `COc1ccc(CCNc2ccc(S(=O)(=O)N3CCCC3)cc2[N+](=O)[O-])cc1`, the AC50 is 4.61 µM [rising, single point] under setting [1] and 2.06 µM [falling, partial curve] under setting [2].
